Laboratory results: PubChem BioAssay AID2685 (National Center for Advancing Translational Sciences (NCATS), 2010)
The list shows a part of the results. Shown are side measurements of this screen, not its main read-out; they come without a call. Compounds called inactive in the main read-out are mostly missing here. The note in brackets gives the kind of curve behind each potency; many fits are weak.

Assay: qHTS Assay for Lipid Storage Modulators in Drosophila S3 Cells;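 as to cell number change: cells counted by Cell Tracker Red CMTPX staining in the red channel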
Conditions: BODIPY lipid droplet fluorescence, 18-24 h; for cell number change: measured here: cell count max response, cells fed with added oleic acid
Procedure, shortened: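 Laser-scanning cytometry quantifies lipid droplet accumulation (500–530 nm total intensity; droplet/cell object ratio) in oleic acid-fed (400 uM added) Drosophila S3 cells treated with a concentration series. 20 uM Triacsin C defined 100% inhibition.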

[1] = measured here: lipid fluorescence (Fed channel) AC50, cells fed with added oleic acid
[2] = measured here: cell number channel AC50, cells fed with added oleic acid

SMILES	cell number change [%]	AC50 [1]	AC50 [2]
Cc1ccc(/C=N/NC(=O)CSc2nc3nc(C)cc(C)n3n2)cc1	79.9		
COCCCn1c(=O)c2sccc2n2c(CCCC(=O)N3CCN(c4ccccn4)CC3)nnc12		6.51 µM [falling, single point]	
CC(C)C(=O)Nc1cccc(NC(=O)c2cc3ccccc3o2)c1		2.31 µM [rising, partial curve]	2.31 µM [rising, partial curve]
CCO[C@@H]1OC(C(=O)NCc2nc3ccccc3[nH]2)=C[C@H](c2ccc(C(F)(F)F)cc2)[C@H]1CCCO	-46.5	29.1 µM [falling, single point]	29.1 µM [falling, single point]
CCN(CC)C(=O)Oc1ccc2cc(Br)ccc2c1	47.5	13 µM [rising, partial curve]	10.3 µM [rising, partial curve]
O=[N+]([O-])c1ccccc1/C=C/CN1CCN(Cc2ccc3c(c2)OCO3)CC1	-1.4	29.1 µM [rising, single point]	
O=C(N/N=C/c1ccco1)c1cc(-c2ccc(Cl)cc2)n[nH]1	-21.6		
CN(C(=O)COC(=O)/C=C/c1ccc2ccccc2n1)C1CCS(=O)(=O)C1 (centres undefined)	11.2		0.731 µM [rising, partial curve, poor fit]
CCCCCCOC(=O)/C=C/c1c(C)[nH]c(=O)[nH]c1=O	58	5.8 µM [rising, partial curve]	2.91 µM [rising, full curve]
Cc1csc(SCC(=O)N(C)c2c(N)n(Cc3ccccc3)c(=O)[nH]c2=O)n1			0.146 µM [rising, single point]
Cc1nc(-c2ccc(Cl)cc2)sc1C(=O)NN	-1.93	0.231 µM [rising, full curve, poor fit]	
O=C(NNc1nc2ccc(F)cc2s1)c1cccc(F)c1	15.7		
Cc1ccc(NC(=O)Nc2ccccc2CC[N+](=O)[O-])cc1	-28.9		
COC(=O)c1ccc(N)cc1O	1.86		
CCOc1ccc(NC(=O)NC2CCCCCCC2)cc1	-17.3	29.1 µM [falling, single point]	
Cc1[nH]c2ccccc2c1C(=O)CSc1ccccc1	-24	29.1 µM [falling, single point]	
COc1ccc(-c2cn(Cc3ccc(C(N)=O)cc3)c(-c3ccc(Cl)nc3)n2)cc1	-5.79	29.1 µM [rising, single point]	
O=C(Nc1nnc(-c2ccco2)o1)c1ccc([N+](=O)[O-])s1	-19.4	6.51 µM [falling, single point]	
CC(C)n1nc(C(=O)Nc2ccccc2N2CCOCC2)c2ccccc2c1=O	13.3	0.651 µM [falling, single point]	
CN(C)C(=O)c1cc2cc(Br)ccc2s1	8.31	3.66 µM [falling, single point]	3.26 µM [falling, single point]
O=C(Nc1cccc(Cl)c1)N1CCc2ccccc2C1	1.72	32.6 µM [falling, single point]	

2 entries drawn at random from the list so far, as already listed:
SMILES	cell number change [%]	AC50 [1]	AC50 [2]
Cc1[nH]c2ccccc2c1C(=O)CSc1ccccc1	-24	29.1 µM [falling, single point]	
Cc1csc(SCC(=O)N(C)c2c(N)n(Cc3ccccc3)c(=O)[nH]c2=O)n1			0.146 µM [rising, single point]

The list goes on:

SMILES	cell number change [%]	AC50 [1]	AC50 [2]
CCOC(=O)N1CCC(NC(=O)CC2C(=O)NCCN2Cc2cccc(F)c2F)CC1 (centres undefined)	2.05	6.51 µM [falling, single point]	
CCOc1ccccc1CNc1ccc(O)cc1	-64.9	29.1 µM [falling, single point]	29.1 µM [falling, single point]
Cc1ccc(C)c(NC(=S)N(Cc2cccc(Br)c2)CC2CCC(C(=O)O)CC2)c1 (centres undefined)		6.51 µM [rising, single point]	
C=CCOc1ccc2nnc(C)n2n1	-0.505	9.2 µM [rising, partial curve]	
CCCOc1cccc(C(=O)NCCNC(=O)c2ccccn2)c1	-28.9		0.184 µM [rising, partial curve]
CN(C)N=Nc1ccc2nc[nH]c2c1		29.1 µM [rising, single point]	3.26 µM [rising, partial curve, poor fit]
Cc1ccc(C(=O)c2c3ccc(N)cc3nn2CCC(N)=O)cc1	8.38		0.0651 µM [rising, full curve, poor fit]
COc1ccc(C2c3c(ccc4ccccc34)Oc3ncn4nc(CO/N=C/c5ccccc5)nc4c32)cc1 (centres undefined)	27.8	6.51 µM [falling, single point]	
O=C(Nc1ccc(Oc2ccc3ccccc3c2)cc1)c1ccco1	-21.5		
O=C(/C=C/c1ccc(F)cc1)OCC(=O)c1ccc[nH]1	-8		
CCCCn1nnnc1NCc1cccc(OC)c1OC	67.3		18.4 µM [rising, single point]
COc1ccc(C2(NC(C)=O)CCN(C(=O)CCC(=O)O)CC2)cc1	10.9	23.1 µM [falling, single point]	
CC(On1nnc2ccc(S(=O)(=O)N3CCOCC3)cc21)C(=O)Nc1ccccc1F (centres undefined)	41		20.6 µM [rising, single point]
O=C(CCn1cnc2ccccc21)N/N=C/c1ccc(O)cc1	18		
CC(=O)NC1=NN(C(C)=O)C(C)(c2ccc(C)o2)S1 (centres undefined)	35.3		32.6 µM [rising, partial curve, poor fit]
CC(NC(=O)OCc1ccccc1)C(=O)N1CC(O)CC1C(=O)O (centres undefined)	-155	29.1 µM [falling, single point]	4.11 µM [falling, full curve]
CC(C)N(C(=O)COC(=O)c1ccc([N+](=O)[O-])cc1)c1ccccc1		6.51 µM [rising, single point]	
O=C(COC(=O)c1cnccn1)c1ccc(Br)cc1	3.23	0.82 µM [falling, full curve, poor fit]	
COc1cc(SC)ccc1C(=O)Nc1cc(C)ccn1	-55.6	20.6 µM [falling, single point]	1.64 µM [falling, partial curve]
Cc1ccc(NC(=O)CN(C)CC(=O)NC2CCCc3ccccc32)cc1 (centres undefined)	7.01	18.4 µM [rising, single point]	
CSc1cccc(NC(=S)N2CCC(N(C)C(C)C)CC2)c1		0.326 µM [falling, partial curve]	

SMILES	cell number change [%]	AC50 [1]	AC50 [2]
COc1ccccc1N1C(=O)c2ccc(C(=O)Nc3ccc(F)cc3)cc2C1=O	10.8	6.51 µM [rising, single point]	
Cc1ccc(NC(=O)CN(C)C(=O)CCSc2ccc(F)cc2)cc1	-19.7	0.00411 µM [falling, full curve, poor fit]	
Cc1csc2c(N3CCN(C(=S)Nc4ccc(F)cc4F)CC3)ncnc12	-3.12		0.184 µM [rising, full curve]
COc1ccccc1NC(=O)Nc1cc(NC(=O)Nc2ccccc2OC)c(C)nc1C	-52.5	14.6 µM [falling, partial curve, poor fit]	32.6 µM [falling, single point]
O=C(NNS(=O)(=O)c1ccc(CCCl)cc1)C(O)(c1ccccc1)c1ccccc1	21.1	0.0231 µM [rising, full curve, poor fit]	
CS(=O)(=O)N1CCC(C(=O)Nc2ccc3c(c2)OCCO3)CC1	8.44	29.1 µM [falling, single point]	
CC(C)(C)NC(=O)C1CCC(CNS(=O)(=O)c2cccc3nsnc23)CC1 (centres undefined)		6.51 µM [falling, single point]	
Nc1nnc(SCc2ccccc2F)n1-c1ccccc1	15.8		
COc1ccc(OC)c(NC(=O)c2oc3ccccc3c2NC(=O)C2CC2)c1	5.82	0.259 µM [rising, full curve, poor fit]	
O=C(O)CC12CSc3[nH]c(=O)sc3C1c1ccccc1OC2=O (centres undefined)	-8.37	3.66 µM [falling, single point]	0.0291 µM [falling, full curve, poor fit]
Cc1csc2c(N3CCN(C(=O)c4ccc(C(C)(C)C)cc4)CC3)ncnc12	-65.7	20.6 µM [falling, partial curve]	18.4 µM [falling, partial curve]
Cc1ccc(-c2csc3ncnc(SCC(=O)NCC4CCCO4)c23)cc1 (centres undefined)	-9.09	0.651 µM [falling, single point]	
CC1CCN(S(=O)(=O)c2ccc3c(c2)N(CC(=O)NCCCN2CCCCC2)C(=O)CS3)CC1			0.058 µM [rising, full curve]
CNc1oc(-c2cccs2)nc1S(=O)(=O)c1ccccc1	118		
COc1ccc(/C=C/C(=O)NC(=S)Nc2ccc(S(=O)(=O)N=C(N)N)cc2)cc1OC	17.6	6.51 µM [rising, single point]	5.17 µM [rising, partial curve, poor fit]
O=C(/C=C/c1ccc(Cl)c([N+](=O)[O-])c1)c1ccc(O)cc1	-41.8	29.1 µM [falling, single point]	29.1 µM [falling, single point]
c1ccc(OCCn2cnc3ccccc32)cc1	63.1	16.4 µM [rising, single point]	18.4 µM [rising, single point]
O=C(CSc1nc2[nH]c(=O)cc(O)c2s1)Nc1ccc(Br)cc1	-24.8	0.731 µM [rising, single point]	
CCOc1ccc(CCNC(=O)CCCn2nc(C)c3c(C)n(-c4ccccc4)nc3c2=O)cc1	-7.79	3.26 µM [rising, partial curve]	1.84 µM [rising, partial curve]
